The list shows a part of the results. Small differences around the control level are noise.
Tests used:
[1] = system: ppGalNAc-T3 sensor; assay: T3 sensor activation Q score (MG/GFP ratio z-score vs DMSO controls) (SD units); higher = more sensor activation (inhibition of ppGalNAc-T3 glycosylation); conditions: HEK293 sensor cells; 10 µM; 6 h
Procedure: (§1)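 Cells were treated with compound at 10 uM for 6 h, then MG/GFP ratio was read by flow cytometry (10,000 cells per well, duplicate wells). Q = (R - R_neg)/SD_neg relative to DMSO vehicle controls; the signal rises when the glycosyltransferase is inhibited.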

[2] = system: ppGalNAc-T2 sensor; assay: T2 sensor activation Q score (MG/GFP ratio z-score vs DMSO controls) (SD units); higher = more sensor activation (inhibition of ppGalNAc-T2 glycosylation); conditions: HEK293 sensor cells; 10 µM; 6 h
Procedure: as §1

Compound	T3 sensor activation Q score [1]	T2 sensor activation Q score [2]
OC1CCCN(Cc2cccc(Cl)c2)C1 (stereo not drawn)	0.185	-1.25
O=C(O)C1CCCCC1C(=O)N1CCCCCC1 (stereo not drawn)	-0.36	0.115
CCc1ccc(CN2CCC(O)CC2)cc1	0.27	0.06
O=C(NCc1ccc(Cl)cc1)c1cccnc1	0.405	0.875
CCN1CCN(CC(O)COc2cc(C)c(Cl)c(C)c2)CC1 (stereo not drawn)	-0.155	-0.66
CN1CCc2c(n(-c3ccccc3)c3ccccc23)C1=O	0.65	-0.095
O=C(NCc1cccnc1)c1ccc(F)cc1	0.925	-0.18
O=Cc1ccc(S(=O)(=O)c2ccc(Cl)cc2)cc1	0.07	0.71
CC(C)Cc1ccc(C(C)C(=O)NN)cc1 (stereo not drawn)	2.3	-0.425
CC(=O)Nc1ccc(NC(=O)COc2cccc(C)c2)cc1	-0.54	1.78
COc1ccc(C(=O)NCCSC2CCCCC2)cc1	-0.625	0.48
CC(C)CNC(=O)c1ccc(CN2CCc3ccccc3C2)cc1	-0.7	-0.255
Cc1ccc(NC(=O)CC(=O)NN)cc1	1.21	1.58
COc1cc(Cc2ccc(NC(C)=O)c(OC)c2)ccc1NC(C)=O	-0.115	-0.315
CCc1c(C)nc(N)nc1N1CCOCC1	-0.13	-0.265
CCOc1ccccc1N1CCN(Cc2ccc([N+](=O)[O-])cc2)CC1	0.47	1.35
Cc1ccc(S(=O)(=O)N2CCCCC2)cc1	1.35	-0.325
O=C(CCC1CCCC1)N1CCN(C(=O)c2cccs2)CC1	-0.16	0.06
O=C(NCCC1=CCCCC1)c1ccc(CN2CCOCC2)cc1	1.35	0.38
COc1cc(OC)c(OC)cc1CNC1C2CC3CC(C2)CC1C3 (stereo not drawn)	-0.085	0.225
C=CCn1c(-c2ccc(OC)cc2)nc2ccccc21	-0.375	-1.06
CC1C=CC(C)[C@H](C(=O)O)[C@H]1C(=O)O (stereo partly drawn)	0.365	-0.42
O=[N+]([O-])c1ccc(N2CCOCC2)cc1OCCOc1ccccc1	0.7	-1.21

Compound	T3 sensor activation Q score [1]	T2 sensor activation Q score [2]
O=C1C(=O)N(CCO)C(c2ccccc2F)C1=C(O)c1ccccc1 (stereo not drawn)	-0.69	-0.27
c1ccc(OCCCn2ccnc2)cc1	0.435	-0.845
CCN1CCN(Cc2ccc(-c3ccccc3)cc2)CC1	0.89	0.68
NNC(=O)c1ccc(C(=O)O)cc1	1.65	0.35
CCN1CCN(C/C=C/c2ccccc2[N+](=O)[O-])CC1	0.265	0.225
Cc1cc(C)c(S(=O)(=O)N2CCCC2=O)c(C)c1	-0.435	0.26
CC(=O)Nc1ccc(C(=O)NC(C)CCc2ccccc2)cc1 (stereo not drawn)	0.11	0
CN(C)CC(O)Cn1c2ccccc2c2ccccc21 (stereo not drawn)	1.8	-1.4
COc1ccc(CNC2CCCC(C)C2)cc1 (stereo not drawn)	0.765	-0.105
COc1ccccc1N1CCN(S(=O)(=O)c2ccc(Cl)cc2)CC1	0.15	1.38
CC(C)c1ccc(S(=O)(=O)NC(C)(C)C)cc1	0.615	-0.77
O=S(=O)(c1ccccc1)N1CCN(Cc2ccc(F)cc2)CC1	-0.755	1.14
O=[N+]([O-])c1cccc(CN2CCC(Cc3ccccc3)CC2)c1	-0.355	-0.55
Cc1ccc(Cn2cnc3ccccc32)cc1	-0.22	0.545
CS(=O)(=O)N(Cc1ccccc1)c1ccc(C(=O)O)cc1	-0.585	-0.255
NC(=O)c1ccc(NC(=O)Nc2ccc(Cl)cc2)cc1	-0.14	-1.75
CN1CCN(C2CC(=O)N(c3ccccc3F)C2=O)CC1 (stereo not drawn)	0.04	0.565
Cc1cccc(N2CCN(Cc3ccc(Br)o3)CC2)c1C	-0.295	0.635
O=C(CCSc1ccccc1)Nc1cccc(F)c1	0.575	-0.105
CC(=O)C1=C(O)C(=O)N(c2ccccn2)C1c1ccccc1F (stereo not drawn)	0.36	0.31
CN1C(=O)CC(N2CCN(c3ccc(Cl)cc3)CC2)C1=O (stereo not drawn)	-0.11	-0.455
Cn1c(/C=C/c2ccccc2)cc[n+]1C	-0.22	-0.2
O=C(Nc1ccc(Cl)c(Cl)c1)[C@@H]1C[C@@H]1c1ccccc1	0.11	0.83

Compound	T3 sensor activation Q score [1]	T2 sensor activation Q score [2]
O=C1CC(Nc2ccc(Br)cc2)C(=O)N1c1cccc(Cl)c1 (stereo not drawn)	0.92	1
CCN(CC)CCN1C(=O)C(O)=C(C(C)=O)C1c1ccc(Br)cc1 (stereo not drawn)	0.115	-0.085
CCCCOc1ccc(CC(=O)O)cc1	-0.155	-1.07
O=C(NN1C(=O)c2ccccc2C1=O)c1cccc(Br)c1	-0.025	0.31
CC(C)Oc1ccccc1C1CC(=O)NC1=O (stereo not drawn)	0.65	-1.67
O=C1c2ccc(F)cc2C(=O)N1CCO	0.02	-0.95
CCN1CCC(N2CCN(c3ccccc3)CC2)CC1	0.42	-0.2
Cc1ccc(CNc2ccc3c(c2)OCO3)c(C)c1	-2.44	-6.99
CC1CC(=O)Nc2cc([N+](=O)[O-])ccc2N1 (stereo not drawn)	-0.05	-1.04
CCN(CC)C(=O)C1CCCN(Cc2c(Cl)cccc2Cl)C1 (stereo not drawn)	-0.195	0.335
COc1ccc(CC2=C(O)c3ccccc3C(=O)C2=O)cc1	1.6	-0.925
Cc1ccccc1NC1=C(N)C(=O)c2ccccc2C1=O	-0.285	0.81
O=C(NC1CCCCCC1)C1CCNCC1	0.14	-0.74
O=C(c1cccc(S(=O)(=O)N2CCCCC2)c1)N1CCCCC1	-0.095	2.02
Cc1nn(C(=O)c2ccccc2)c2c1C(=O)CC(C)(C)C2	0.405	-1.01
CN(Cc1ccccc1)C(=O)c1ccc(Br)cc1	0.435	-0.275
Cc1ccc(SCC(=O)N2CCN(Cc3ccccc3)CC2)cc1	-0.765	-1.14
CCCc1ccc(C(C)NC(=O)c2cc(C)on2)cc1 (stereo not drawn)	0.87	-0.4
NNC(=O)COc1ccccc1	0.85	0.055
CCCCNC(=O)c1ccc(Cl)cc1	-0.415	0.545
NC1C2CN3CCN(C2)CC1(Cc1ccccc1)C3 (stereo not drawn)	-0.05	0
CN(C)c1nc2ccc(OCCN3CCCCC3)cc2s1	-0.46	1.18
COc1cc(CO)c(C2(C(=O)O)CCCC2)cc1OC	0.365	0.7

Full records, looked up by structure. Order of values: T3 sensor activation Q score [1]	T2 sensor activation Q score [2]
OC1CCCN(Cc2cccc(Cl)c2)C1 (stereo not drawn) as listed: 0.185	-1.25
CC1C=CC(C)[C@H](C(=O)O)[C@H]1C(=O)O (stereo partly drawn) as listed: 0.365	-0.42
Cc1ccc(SCC(=O)N2CCN(Cc3ccccc3)CC2)cc1 as listed: -0.765	-1.14
CC1CC(=O)Nc2cc([N+](=O)[O-])ccc2N1 (stereo not drawn) as listed: -0.05	-1.04

Additional structures follow.

Compound	T3 sensor activation Q score [1]	T2 sensor activation Q score [2]
COc1cccc(CN2CCc3ccccc3C2)c1	-0.465	0.17
O=[N+]([O-])c1ccc(-c2cnc3ccccc3n2)cc1	0.17	0.055
CCN(CCN(C)C)Cc1cccc(F)c1	0.725	1.04
CCCCOc1ccc(CN2CCC(O)CC2)cc1	0.27	0.21
COc1ccc(CN2CCN(c3cccc(C)c3C)CC2)c(OC)c1OC	-0.305	1.11
Cc1nc(C)c(-c2cc(C)c3c(C)nc(C)nc3n2)c(N)n1	1.4	-0.325
CCc1nc(C)cc(CN(C)C)c1O	0.265	0.06
O=C1CC(N2CCN(c3ncccn3)CC2)C(=O)N1c1cccc(Cl)c1 (stereo not drawn)	-0.44	0.155
COc1cc2sc3ccccc3c(=O)c2cc1OC	0.57	-0.585
COc1ccc(CN2CCN(c3ccccc3)CC2)c(OC)c1OC	1.22	-0.485
O=C1NC(=O)c2cc(-c3ccccc3)ccc21	2.8	-0.705
CCN(CC)C(=O)C1CCCN(Cc2ccc(C)cc2C)C1 (stereo not drawn)	1.8	0.56
CC(C)(C)S(=O)(=O)c1cccs1	0.25	-0.705
c1ccc(-c2cn3ccsc3n2)cc1	0.03	-1.25
OC1CCCN(Cc2ccccc2)C1 (stereo not drawn)	0.095	0.41
CCN(CC)C(=O)C1CCCN(Cc2cccc(OC)c2OC)C1 (stereo not drawn)	0.33	-0.4
Fc1cccc(-c2nc3cc(N4CCOCC4)c(N4CCOCC4)cc3[nH]2)c1	0.025	-1.02
COc1ccc(CN2CCCN(C)CC2)cc1C	0.275	0.375
CC(=O)Nc1nonc1-c1ccccc1	0.085	-1.16
COc1ccccc1CNC(=O)c1ccc(C(C)(C)C)cc1	0.955	-1.03
CN(CC(=O)O)c1ccccc1C(=O)O	-0.945	-1.48
CC(=O)c1cccc(Nc2nc(-c3ccccc3)cs2)c1	-0.305	-0.515
Cc1ccc(S(=O)(=O)NC(C)(C)C)cc1[N+](=O)[O-]	-1	-1.2

Compound	T3 sensor activation Q score [1]	T2 sensor activation Q score [2]
c1ccc2c(NC3CC3)nc(N3CCCC3)nc2c1	0.785	-0.68
On1c(-c2cccc(Cl)c2)nc2c1CCc1nonc1-2	0.015	-0.51
CC(C(=O)O)c1n[nH]c(=O)c2ccccc12 (stereo not drawn)	0.105	-0.52
CCCSc1nnc(-c2ccccc2N)c(=O)[nH]1	-0.255	0.435
O=[N+]([O-])c1ccc(C(O)CC(O)C(Cl)(Cl)Cl)cc1 (stereo not drawn)	-0.265	0.865
COc1ccccc1C(=O)Nc1cccc(C)c1C	0.945	-0.71
CC(C)C1=NN2C(=N)CC(=O)N=C2S1	1.43	0.99
NC12CC3CC(C1)CC(C(=O)O)(C3)C2	0.865	0.23
COc1cc(OC)c(OC)cc1CN1CCN(c2cccc(C)c2C)CC1	-0.63	0.325
Cc1cccc(C)c1NC(=O)CNc1ccccc1	-0.69	-1.49
Cc1cc(F)c(F)c(C(=O)N2CCOCC2)c1Cl	0.505	0.325
COc1cc(OC)cc(C(=O)NCc2ccccc2Cl)c1	-0.515	-0.13
COc1cc(NS(=O)(=O)c2ccc(Br)cc2)c(OC)cc1Cl	0.63	0.56
CCOc1ccc2nc(C)sc2c1	-0.465	-1.17
Cc1ccc(S(=O)(=O)NC2CCCCC2)c2nsnc12	-0.98	-0.035
CC(C)(C)c1cc(Br)cc(C=O)c1O	0.03	0.275
O=C(CC(Nc1ccccc1)c1ccccc1)c1ccccc1 (stereo not drawn)	-0.11	-0.16
O=S(=O)(c1ccc(F)cc1)c1ccc(-c2ccccc2)cc1	0.345	-0.455
CCOc1ccc2nc(SCC)[nH]c2c1	1	0.725
Cc1cccc(C)c1NCc1c(F)cccc1F	1.05	-0.115
Cc1ccccc1-c1nnn(Cc2ccc(F)cc2Cl)n1	0.6	-0.47
CCN(Cc1ccccc1)Cc1c(F)cccc1F	0.365	-0.365
